From the supplement of paper PMC12823440, “Inhibitors supercharge kinase turnover through native proteolytic circuits” (Nature, 2025)
Counter-ions that a name gives are not always drawn. The list shows a part of the results. The calls rarely recur for the same compound in another form.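 Kinases, fused to nanoluciferase, were expressed in K562 cells; luminescence was measured every 4 h from 2 to 18 h as percent of control (DMSO = 100%, positive control = 0%). A time point is decreased if signal falls significantly (2 sigma). Hits were called by the authors by a rule that is not shown; the count of time points alone does not decide it.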

The chains behind the UniProt entries cited, without tags or fusion partners. Where a name states a change or a piece, a line headed by the entry shows the natural chain unless it says otherwise.
UniProt Q01974, whole entry: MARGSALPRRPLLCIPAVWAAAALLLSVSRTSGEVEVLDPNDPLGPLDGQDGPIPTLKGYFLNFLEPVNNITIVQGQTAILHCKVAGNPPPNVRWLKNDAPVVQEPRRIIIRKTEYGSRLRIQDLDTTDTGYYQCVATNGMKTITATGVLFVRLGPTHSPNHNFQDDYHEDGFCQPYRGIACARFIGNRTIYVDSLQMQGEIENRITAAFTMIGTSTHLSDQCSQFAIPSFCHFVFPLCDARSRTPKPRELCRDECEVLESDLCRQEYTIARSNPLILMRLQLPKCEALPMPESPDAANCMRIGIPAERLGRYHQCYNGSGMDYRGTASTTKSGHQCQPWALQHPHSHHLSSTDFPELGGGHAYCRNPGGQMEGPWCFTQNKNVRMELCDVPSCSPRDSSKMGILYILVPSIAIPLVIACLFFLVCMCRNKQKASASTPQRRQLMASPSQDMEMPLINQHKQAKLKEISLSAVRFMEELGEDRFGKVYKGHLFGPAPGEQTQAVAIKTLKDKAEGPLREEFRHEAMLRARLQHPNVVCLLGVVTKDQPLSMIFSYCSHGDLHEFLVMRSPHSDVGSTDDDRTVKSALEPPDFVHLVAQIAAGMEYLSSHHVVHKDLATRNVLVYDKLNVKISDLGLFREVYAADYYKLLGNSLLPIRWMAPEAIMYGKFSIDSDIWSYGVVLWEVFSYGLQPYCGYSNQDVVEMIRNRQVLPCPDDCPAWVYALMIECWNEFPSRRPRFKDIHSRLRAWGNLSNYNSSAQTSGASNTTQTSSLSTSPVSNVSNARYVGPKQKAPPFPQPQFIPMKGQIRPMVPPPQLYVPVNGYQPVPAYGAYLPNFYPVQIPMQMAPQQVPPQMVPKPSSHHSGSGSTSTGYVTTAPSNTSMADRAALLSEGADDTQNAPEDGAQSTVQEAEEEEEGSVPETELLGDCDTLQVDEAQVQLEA
UniProt Q15418, whole entry: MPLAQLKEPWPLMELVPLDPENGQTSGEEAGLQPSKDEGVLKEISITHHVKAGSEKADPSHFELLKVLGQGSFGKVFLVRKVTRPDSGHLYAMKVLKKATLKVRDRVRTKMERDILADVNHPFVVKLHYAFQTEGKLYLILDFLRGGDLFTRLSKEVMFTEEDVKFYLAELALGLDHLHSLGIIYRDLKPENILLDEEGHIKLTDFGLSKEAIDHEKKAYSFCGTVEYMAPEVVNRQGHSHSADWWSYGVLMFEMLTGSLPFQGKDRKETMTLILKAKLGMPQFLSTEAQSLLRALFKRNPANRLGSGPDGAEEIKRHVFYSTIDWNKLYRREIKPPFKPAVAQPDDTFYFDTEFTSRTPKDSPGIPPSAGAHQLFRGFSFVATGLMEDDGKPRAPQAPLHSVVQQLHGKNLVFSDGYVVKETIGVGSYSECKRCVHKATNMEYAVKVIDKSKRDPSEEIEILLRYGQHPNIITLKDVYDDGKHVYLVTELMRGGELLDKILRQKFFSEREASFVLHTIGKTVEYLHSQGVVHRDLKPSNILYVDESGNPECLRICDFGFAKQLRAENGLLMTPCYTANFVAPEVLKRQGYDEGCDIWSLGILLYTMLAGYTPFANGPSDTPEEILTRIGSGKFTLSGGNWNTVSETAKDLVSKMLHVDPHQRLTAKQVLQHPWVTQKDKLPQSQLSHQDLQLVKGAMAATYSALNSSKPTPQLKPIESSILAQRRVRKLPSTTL
UniProt Q9NYA1, whole entry: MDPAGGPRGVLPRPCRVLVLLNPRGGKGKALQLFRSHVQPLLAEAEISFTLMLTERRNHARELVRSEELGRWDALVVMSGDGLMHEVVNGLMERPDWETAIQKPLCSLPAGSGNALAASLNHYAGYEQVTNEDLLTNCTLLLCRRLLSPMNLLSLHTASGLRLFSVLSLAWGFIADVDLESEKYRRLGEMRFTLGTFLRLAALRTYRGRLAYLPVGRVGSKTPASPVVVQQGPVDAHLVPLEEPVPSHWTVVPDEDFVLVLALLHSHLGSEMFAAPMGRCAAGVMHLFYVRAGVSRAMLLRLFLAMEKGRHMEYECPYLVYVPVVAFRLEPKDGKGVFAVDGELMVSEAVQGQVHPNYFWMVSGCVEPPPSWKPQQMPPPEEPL
UniProt Q9Y6E0: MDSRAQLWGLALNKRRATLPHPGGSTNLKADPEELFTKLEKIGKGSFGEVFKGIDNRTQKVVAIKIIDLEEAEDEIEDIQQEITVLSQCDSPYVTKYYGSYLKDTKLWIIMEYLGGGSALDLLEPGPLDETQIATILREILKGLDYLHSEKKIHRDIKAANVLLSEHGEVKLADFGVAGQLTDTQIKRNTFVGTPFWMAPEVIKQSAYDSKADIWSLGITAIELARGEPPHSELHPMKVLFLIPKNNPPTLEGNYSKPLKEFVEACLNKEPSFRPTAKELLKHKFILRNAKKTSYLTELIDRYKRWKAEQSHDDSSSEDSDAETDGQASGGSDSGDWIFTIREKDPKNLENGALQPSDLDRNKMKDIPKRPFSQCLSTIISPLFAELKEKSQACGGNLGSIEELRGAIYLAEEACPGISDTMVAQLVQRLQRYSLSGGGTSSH
UniProt Q15208: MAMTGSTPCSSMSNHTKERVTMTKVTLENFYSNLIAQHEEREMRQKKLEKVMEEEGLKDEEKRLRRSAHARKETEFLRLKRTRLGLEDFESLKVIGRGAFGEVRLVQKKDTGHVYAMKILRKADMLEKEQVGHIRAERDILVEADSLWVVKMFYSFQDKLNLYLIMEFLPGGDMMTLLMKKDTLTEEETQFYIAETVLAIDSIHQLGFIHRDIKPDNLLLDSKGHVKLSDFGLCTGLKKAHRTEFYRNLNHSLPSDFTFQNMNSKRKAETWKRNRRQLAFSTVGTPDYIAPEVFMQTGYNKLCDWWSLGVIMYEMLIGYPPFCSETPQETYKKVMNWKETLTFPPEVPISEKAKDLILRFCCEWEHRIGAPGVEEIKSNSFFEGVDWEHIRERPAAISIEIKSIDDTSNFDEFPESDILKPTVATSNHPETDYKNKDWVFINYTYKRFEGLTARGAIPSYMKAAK
UniProt P42680: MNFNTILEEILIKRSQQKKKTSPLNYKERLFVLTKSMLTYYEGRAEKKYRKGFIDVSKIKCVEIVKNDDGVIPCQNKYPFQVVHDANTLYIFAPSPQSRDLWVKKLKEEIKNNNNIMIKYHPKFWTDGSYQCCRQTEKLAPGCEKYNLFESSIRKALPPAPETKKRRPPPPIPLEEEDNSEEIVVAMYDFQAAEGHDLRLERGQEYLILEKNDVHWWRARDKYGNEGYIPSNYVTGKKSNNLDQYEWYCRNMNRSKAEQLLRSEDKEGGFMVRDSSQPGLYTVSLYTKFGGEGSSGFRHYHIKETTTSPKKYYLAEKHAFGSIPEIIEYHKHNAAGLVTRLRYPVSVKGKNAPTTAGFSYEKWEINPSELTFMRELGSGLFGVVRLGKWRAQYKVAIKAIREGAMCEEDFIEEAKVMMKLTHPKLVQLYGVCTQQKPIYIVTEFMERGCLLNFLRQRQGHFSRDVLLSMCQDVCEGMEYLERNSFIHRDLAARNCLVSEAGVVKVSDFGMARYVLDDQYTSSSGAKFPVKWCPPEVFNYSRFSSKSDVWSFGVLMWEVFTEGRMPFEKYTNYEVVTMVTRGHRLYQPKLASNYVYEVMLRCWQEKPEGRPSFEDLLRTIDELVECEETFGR
UniProt P29597: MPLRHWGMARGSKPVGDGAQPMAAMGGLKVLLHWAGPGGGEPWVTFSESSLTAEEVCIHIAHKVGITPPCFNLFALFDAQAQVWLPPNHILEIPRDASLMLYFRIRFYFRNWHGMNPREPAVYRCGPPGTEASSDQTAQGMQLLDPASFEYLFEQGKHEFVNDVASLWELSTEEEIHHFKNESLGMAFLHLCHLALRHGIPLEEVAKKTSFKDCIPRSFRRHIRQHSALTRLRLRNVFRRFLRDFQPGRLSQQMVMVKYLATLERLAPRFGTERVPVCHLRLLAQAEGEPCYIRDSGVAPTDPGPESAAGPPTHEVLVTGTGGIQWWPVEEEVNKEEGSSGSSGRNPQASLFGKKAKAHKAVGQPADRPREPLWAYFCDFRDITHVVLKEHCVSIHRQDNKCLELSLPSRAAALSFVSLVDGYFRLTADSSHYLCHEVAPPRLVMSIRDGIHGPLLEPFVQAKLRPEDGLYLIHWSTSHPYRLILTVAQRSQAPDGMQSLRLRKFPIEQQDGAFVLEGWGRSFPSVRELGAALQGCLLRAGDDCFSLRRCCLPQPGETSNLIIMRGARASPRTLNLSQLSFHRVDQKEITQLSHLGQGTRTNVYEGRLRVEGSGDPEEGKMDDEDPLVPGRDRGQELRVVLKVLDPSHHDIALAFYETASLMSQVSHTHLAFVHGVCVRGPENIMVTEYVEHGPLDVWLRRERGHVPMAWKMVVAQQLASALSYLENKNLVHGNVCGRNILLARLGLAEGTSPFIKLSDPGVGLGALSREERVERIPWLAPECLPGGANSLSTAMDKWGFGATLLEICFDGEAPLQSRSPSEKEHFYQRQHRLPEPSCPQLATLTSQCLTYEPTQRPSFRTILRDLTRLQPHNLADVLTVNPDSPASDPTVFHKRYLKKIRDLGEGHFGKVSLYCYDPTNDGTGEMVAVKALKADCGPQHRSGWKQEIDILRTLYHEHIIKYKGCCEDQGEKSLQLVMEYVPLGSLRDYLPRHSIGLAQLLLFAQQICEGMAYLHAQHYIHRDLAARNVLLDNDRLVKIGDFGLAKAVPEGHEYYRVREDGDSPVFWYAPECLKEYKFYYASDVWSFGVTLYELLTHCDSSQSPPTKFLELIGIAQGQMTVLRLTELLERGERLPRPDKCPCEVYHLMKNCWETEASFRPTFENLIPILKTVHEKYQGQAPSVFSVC
UniProt P07947, whole entry, looked up: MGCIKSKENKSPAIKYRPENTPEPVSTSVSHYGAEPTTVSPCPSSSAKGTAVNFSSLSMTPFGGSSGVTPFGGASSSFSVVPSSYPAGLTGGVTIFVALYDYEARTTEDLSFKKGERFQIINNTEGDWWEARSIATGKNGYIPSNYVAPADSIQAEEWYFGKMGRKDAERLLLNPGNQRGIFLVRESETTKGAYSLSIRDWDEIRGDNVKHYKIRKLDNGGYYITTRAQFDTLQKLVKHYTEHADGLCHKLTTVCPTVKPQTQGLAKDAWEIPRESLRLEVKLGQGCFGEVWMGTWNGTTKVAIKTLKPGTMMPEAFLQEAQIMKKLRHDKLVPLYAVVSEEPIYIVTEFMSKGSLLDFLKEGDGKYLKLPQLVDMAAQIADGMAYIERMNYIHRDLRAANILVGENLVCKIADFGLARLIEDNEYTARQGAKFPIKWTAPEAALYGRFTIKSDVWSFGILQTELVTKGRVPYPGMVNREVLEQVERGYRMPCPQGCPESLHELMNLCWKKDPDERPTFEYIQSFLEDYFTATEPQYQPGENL
UniProt P43403: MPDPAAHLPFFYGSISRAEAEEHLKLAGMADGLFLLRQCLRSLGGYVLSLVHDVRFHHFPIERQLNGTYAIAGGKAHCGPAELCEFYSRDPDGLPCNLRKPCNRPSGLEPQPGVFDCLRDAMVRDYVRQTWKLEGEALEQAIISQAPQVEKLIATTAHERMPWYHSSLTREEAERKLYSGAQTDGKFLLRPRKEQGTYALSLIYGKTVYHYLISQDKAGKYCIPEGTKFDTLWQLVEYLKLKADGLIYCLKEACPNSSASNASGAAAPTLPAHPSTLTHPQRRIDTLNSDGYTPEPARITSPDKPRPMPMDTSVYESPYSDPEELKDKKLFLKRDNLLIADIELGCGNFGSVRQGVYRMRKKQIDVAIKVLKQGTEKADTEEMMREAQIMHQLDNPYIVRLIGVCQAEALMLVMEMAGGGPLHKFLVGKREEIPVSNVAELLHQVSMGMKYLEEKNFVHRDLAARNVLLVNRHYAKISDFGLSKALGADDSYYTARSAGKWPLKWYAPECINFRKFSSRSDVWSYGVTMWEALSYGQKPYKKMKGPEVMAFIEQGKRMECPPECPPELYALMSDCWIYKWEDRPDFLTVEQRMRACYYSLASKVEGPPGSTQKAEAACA
UniProt P11802: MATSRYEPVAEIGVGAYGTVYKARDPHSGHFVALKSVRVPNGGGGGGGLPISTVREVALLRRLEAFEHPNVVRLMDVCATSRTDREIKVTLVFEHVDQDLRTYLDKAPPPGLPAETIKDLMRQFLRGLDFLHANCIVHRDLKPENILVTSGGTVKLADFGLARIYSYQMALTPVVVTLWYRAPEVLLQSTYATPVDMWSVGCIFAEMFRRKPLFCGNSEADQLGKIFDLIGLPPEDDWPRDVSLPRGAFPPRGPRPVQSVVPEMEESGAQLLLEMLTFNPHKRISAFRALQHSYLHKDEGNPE
UniProt P50613: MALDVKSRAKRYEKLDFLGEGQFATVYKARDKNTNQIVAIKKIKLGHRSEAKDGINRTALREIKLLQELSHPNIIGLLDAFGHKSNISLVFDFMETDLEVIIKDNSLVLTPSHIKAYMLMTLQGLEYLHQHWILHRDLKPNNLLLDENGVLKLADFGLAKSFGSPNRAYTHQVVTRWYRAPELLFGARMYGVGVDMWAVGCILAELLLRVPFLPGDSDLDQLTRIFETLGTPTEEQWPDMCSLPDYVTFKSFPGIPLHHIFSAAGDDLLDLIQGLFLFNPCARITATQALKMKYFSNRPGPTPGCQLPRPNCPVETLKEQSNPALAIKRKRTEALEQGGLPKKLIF

What was measured:
Conditions in all cases: K562; 2-18 h
ROR2 = ROR2 (UniProt Q01974); assay: number of time points (of 5) at which kinase-Nluc abundance scored as decreased, DMSO-normalised (count); higher = more persistent destabilization
RPS6KA1 = RPS6KA1 (UniProt Q15418); assay: as above
SPHK1 = SPHK1 (UniProt Q9NYA1); assay: as above
SRC = SRC (UniProt P12931); assay: as above
STK24 = STK24 (UniProt Q9Y6E0); assay: as above
STK38 = STK38 (UniProt Q15208); assay: as above
SYK = SYK (UniProt P43405); assay: as above
TEC = TEC (UniProt P42680); assay: as above
TYK2 = TYK2 (UniProt P29597); assay: as above
ULK3 = ULK3 (UniProt Q6PHR2); assay: as above
YES1 = YES1 (UniProt P07947); assay: as above
ZAK = ZAK (UniProt Q9NYL2); assay: as above
ZAP70 = ZAP70 (UniProt P43403); assay: as above
CDK4 = CDK4 (UniProt P11802); assay: number of time points (of 4; 2 h point missing) at which kinase-Nluc abundance scored as decreased, DMSO-normalised (count); higher = more persistent destabilization
CDK7 = CDK7 (UniProt P50613); assay: as above
CDK9 = CDK9 (UniProt P50750); assay: as above

SMILES	number of time points (ROR2)	number of time points (RPS6KA1)	number of time points (SPHK1)	number of time points (SRC)	number of time points (STK24)	number of time points (STK38)	number of time points (SYK)	number of time points (TEC)	number of time points (TYK2)	number of time points (ULK3)	number of time points (YES1)	number of time points (ZAK)	number of time points (ZAP70)	number of time points (CDK4)	number of time points (CDK7)	number of time points (CDK9)
CC#CC(=O)N1CC[C@@H](n2c(=O)n(-c3ccc(Oc4ccccc4)cc3)c3c(N)ncnc32)C1 [Tirabrutinib] (10 µM)	0	0	0	0	0	0	0	0	0	0	0	0	0	0	0	0
CS(=O)(=O)Nc1cc(-c2ccc3ncnc(Nc4ccc(F)c(Cl)c4)c3c2)cnc1Cl (2.5 µM)	0	0	0	0	0	0	0	2	0	0	0	0	0	0	0	0
O=Nc1c(-c2c(O)[nH]c3ccc(F)cc23)[nH]c2ccccc12 [5'-Fluoroindirubinoxime] (10 µM)	0	0	0	0	0	0	0	0	0	0	0	0	0	0	0	0
CCCS(=O)(=O)Nc1ccc(F)c(C(=O)c2c[nH]c3ncc(-c4ccc(Cl)cc4)cc23)c1F [Vemurafenib] (10 µM)	0	0	0	0	0	0	0	0	0	0	0	0	0	0	0	0
OCCn1cc(-c2ccc3c(c2)CC/C3=N\O)c(-c2ccncc2)n1 (10 µM)	0	0	0	0	0	0	0	0	0	0	0	0	0	0	0	0
CCC(C)N1c2ccccc2C(=O)N(C)c2cnc(Nc3ccc(C(=O)N4CCC(N5CCN(C)CC5)CC4)cc3OC)nc21 (stereo not given) (2.5 µM)	0	0	0	0	0	0	0	0	0	0	0	0	0	0	0	0
Cc1cc2ncc(-c3ccc(O)c(O)c3)nc2cc1C [Tyrphostin AG1433] (10 µM)	0	0	0	0	0	0	0	0	0	0	0	0	0	0	0	0
Cn1cnc(Cn2ccc3ccc(CNCc4[nH]c5ccccc5c4[C@H]4NC(=O)c5ccc(O)cc54)cc32)c1 (10 µM)	0	0	0	0	0	0	0	0	0	0	0	0	0	0	0	0
Cc1nc2sccn2c(=O)c1CCN1CCC(=C(c2ccccc2)c2ccc(F)cc2)CC1 (10 µM)	0	0	0	0	0	0	0	0	0	0	0	0	0	0	0	0
Cc1ccc2cc(-c3c(C)ccc(C(=O)c4c(-c5ccccc5)n(C)n(-c5ccccc5)c4=O)c3N)ccc2n1 (2.5 µM)	0	0	0	0	0	0	0	0	0	0	0	0	0	0	0	0
Cc1c(-c2c(F)cc(C(N)=O)c3[nH]c4c(c23)CC[C@H](C(C)(C)O)C4)cccc1-n1c(=O)c2cccc(F)c2n(C)c1=O (2.5 µM)	0	0	0	0	0	0	0	0	0	0	0	0	0	0	0	0
COc1ccc(Cl)c(Nc2nc3ccccc3nc2NS(=O)(=O)c2cccc(NC(=O)C(C)(C)N)c2)c1 [Pilaralisib] (10 µM)	0	0	0	0	0	0	0	0	0	0	0	0	0	0	0	0
Nc1ncnc2c1c(-c1cccc(OCc3ccccc3)c1)cn2C1CC(CN2CCC2)C1 (stereo not given) (2.5 µM)	0	0	0	0	0	0	0	0	0	0	0	0	0	0	0	0
CCc1c(C(=O)NNC(=O)C(O)c2cc(F)cc(F)c2)ccc(O)c1C (stereo not given) (10 µM)	0	0	0	0	0	0	0	0	0	0	0	0	0	0	0	0
CN1CCC(c2cc(-c3ccncc3)c(-c3ccc(F)cc3)[nH]2)CC1 (10 µM)	0	0	0	0	0	0	0	0	0	0	0	0	0	0	0	0
NC(=O)c1ccc2[nH]ccc2c1 (10 µM)	0	0	0	0	0	0	0	0	0	0	0	0	0	0	0	0
COc1cc2c(N3CCN(C(=O)Nc4ccc(OC(C)C)cc4)CC3)ncnc2cc1OCCCN1CCCCC1 [Tandutinib (hydrochloride)] (10 µM)	0	0	0	0	0	0	0	0	0	0	0	0	0	0	0	0
C[C@H](c1ccnc(Nc2nc3ccc(-c4cc(N(C)C)ncn4)cc3[nH]2)c1)N1CCN(C(=O)CC(F)(F)F)CC1 (2.5 µM)	0	0	0	0	0	0	0	0	0	0	0	0	0	0	0	0
CN(C)CCSSCCNC(=O)C1CCN(C(=O)CSc2ccc(Cl)cc2)CC1 (10 µM)	0	0	0	0	0	0	0	0	0	0	0	0	0	0	0	0
CN(C)C(=O)Cn1cc(-c2ccc(-c3cncc4ccccc34)cc2)cn1 (10 µM)	0	0	0	0	0	0	0	0	0	0	0	0	0	0	0	0
C=CC(=O)Nc1cccc(Nc2nc(Nc3ccc(N4CCN(C(C)=O)CC4)cc3OC)ncc2C(F)(F)F)c1 [Rociletinib] (10 µM)	0	0	0	0	0	0	0	0	0	0	0	0	0	0	0	0
C=CC(=O)Nc1cccc(Nc2nc(Nc3ccc(N4CCN(C(C)=O)CC4)cc3OC)ncc2C(F)(F)F)c1 [Rociletinib hydrobromide] (10 µM)	0	0	0	0	0	0	0	0	0	0	0	0	0	0	0	0
Cn1cnc2c(F)c(Nc3ccc(Br)cc3Cl)c(C(=O)NOCCO)cc21 [Selumetinib (sulfate)] (10 µM)	0	0	0	0	0	0	0	0	0	0	0	0	0	0	1	0
CCc1cc2c(cc1N1CCC(N3CCOCC3)CC1)C(C)(C)c1[nH]c3cc(C#N)ccc3c1C2=O [Alectinib (Hydrochloride)] (2 µM)	0	0	0	0	0	0	0	0	0	0	0	0	0	0	0	0
COc1cc(Nc2ncc(F)c(Nc3ccc4c(n3)N(COP(=O)(O)O)C(=O)C(C)(C)O4)n2)cc(OC)c1OC [Fostamatinib (disodium hexahydrate)] (10 µM)	0	0	0	0	0	1	0	0	0	0	0	0	0	0	1	0

Taken from the results shown for reference:
SMILES	number of time points (ROR2)	number of time points (RPS6KA1)	number of time points (SPHK1)	number of time points (SRC)	number of time points (STK24)	number of time points (STK38)	number of time points (SYK)	number of time points (TEC)	number of time points (TYK2)	number of time points (ULK3)	number of time points (YES1)	number of time points (ZAK)	number of time points (ZAP70)	number of time points (CDK4)	number of time points (CDK7)	number of time points (CDK9)
CCc1cc2c(cc1N1CCC(N3CCOCC3)CC1)C(C)(C)c1[nH]c3cc(C#N)ccc3c1C2=O [Alectinib (Hydrochloride)] (2 µM)	0	0	0	0	0	0	0	0	0	0	0	0	0	0	0	0
COc1cc(Nc2ncc(F)c(Nc3ccc4c(n3)N(COP(=O)(O)O)C(=O)C(C)(C)O4)n2)cc(OC)c1OC [Fostamatinib (disodium hexahydrate)] (10 µM)	0	0	0	0	0	1	0	0	0	0	0	0	0	0	1	0
